No constants are given. Whether binding was seen depends on the method and setting. Some results given as binding are weak or reduced against the parent protein; the word gives no strength.
Experiments:
[1] = target: CssA (ETEC CS6 major fimbrial subunit) (enterotoxigenic Escherichia coli) (UniProt P53508); experiment: PAGE, denaturing against non-denaturing; self-association
[2] = target: CssB (ETEC CS6 major fimbrial subunit) (enterotoxigenic Escherichia coli) (UniProt P53510); experiment: as above
[3] = target: CstH (ETEC CS3 major fimbrial subunit) (enterotoxigenic Escherichia coli) (UniProt P15488); experiment: as above
[4] = target: CstH (ETEC CS3 major fimbrial subunit) (enterotoxigenic Escherichia coli) (UniProt P15488); experiment: isolated non-covalent oligomer (3-14 subunits) used as immunogen

Amino acid sequences for entries named in this document (tags omitted). A change or cut given only in a name is not applied to a line headed by its entry.
UniProt P53508: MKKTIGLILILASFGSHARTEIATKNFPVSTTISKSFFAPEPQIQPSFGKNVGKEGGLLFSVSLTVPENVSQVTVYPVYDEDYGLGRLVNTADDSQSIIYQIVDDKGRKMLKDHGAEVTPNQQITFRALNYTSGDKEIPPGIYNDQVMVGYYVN
UniProt P53510: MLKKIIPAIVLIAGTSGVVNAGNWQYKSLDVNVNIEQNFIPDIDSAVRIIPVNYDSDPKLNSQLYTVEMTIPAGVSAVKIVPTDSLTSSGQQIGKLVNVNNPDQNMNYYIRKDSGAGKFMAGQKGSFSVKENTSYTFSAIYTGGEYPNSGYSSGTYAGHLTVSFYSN
UniProt P15488: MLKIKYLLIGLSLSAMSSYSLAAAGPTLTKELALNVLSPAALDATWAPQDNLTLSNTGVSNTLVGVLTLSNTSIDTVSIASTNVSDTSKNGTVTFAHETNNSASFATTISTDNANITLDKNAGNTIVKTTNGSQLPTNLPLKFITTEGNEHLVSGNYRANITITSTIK

With “CssA (ETEC CS6 major fimbrial subunit) (from UniProt P53508 19-154)” the binding [1] was “binds”.
In the case of “CssB (ETEC CS6 major fimbrial subunit) (from UniProt P53510 22-167)”, the binding [2] is reported as “binds”.
In the case of “CstH (ETEC CS3 major fimbrial subunit) (from UniProt P15488 23-168)”, the binding [3] is reported as “binds” and the binding [4] is reported as “binds”.
